Test results published in US20010006673A1, “LUTEIN- CONTAINING SUPPLEMENT AND PROCESS FOR ENHANCING IMMUNE RESPONSE IN ANIMALS” (priority 1998, published 2001).
Read-outs that look alike come from different tables or passages of the source.

Tests used:
[1] = format: in vivo, Tabby cats; conditions: cats
Procedure: (§1) Blood was collected by jugular venipuncture into heparinized evacuated tubes on weeks 0, 2, 4, 8 and 12 and aliquots used for HPLC analysis and for assessing immune responses.
Plasma lutein, retinol and α-tocopherol were analyzed by reverse phase HPLC. Briefly, plasma protein was precipitated with an equal volume of ethanol containing 0.1% butylated hydroxytoluene (BHT) (Aldrich Chemical Co., Milwaukee, Wis.). The mixture was extracted with 5 mi of a 1:1 mixture of petroleum ether:anhydrous diethyl ether and the dried residue resuspended in mobile phase. The mobile phase was a mixture of acetonitrile, methanol and chloroform (47:47:6, v/v/v). The internal standard used was retinyl acetate (Sigma Chem. Co., St. Louis, Mo.). Samples were eluted on a 5 μm C18 reverse phase column (3.9×150 mm; Resolve, Millipore Corp., Milford Mass.) with a flow rate of 1.0 ml/min. The identity of the eluted compounds was verified by comparing their absorption spectra with those of standard compounds.

[2] = Plasma extraction and HPLC analysis in dogs (lutein+zeaxanthin, retinol, α-tocopherol); format: in vivo, Beagle dogs
Procedure: Fifty six female Beagle dogs (17 to 18 months old; average body weight 11.4±0.4 kg) were randomly assigned to be supplemented daily with 0, 5, 10 or 20 mg lutein for 17 weeks. The lutein contained 76.66% lutein and 5.23% zeaxanthin. The lutein supplement was resuspended in soybean oil to the appropriate concentration and 1 mL administered perorally at 0800 h daily. Food (200 g/dog/d) was offered immediately after the lutein supplementation. The basal diet shown in Table 1 below met or exceeded the requirements for all essential nutrients (NRC 1985).
as §1
Plasma was extracted for analysis of lutein, zeaxanthin, retinol and α-tocopherol. Briefly, plasma protein was precipitated by adding an equal volume of ethanol containing 0.1% butylated hydroxytoluene (BHT) (Aldrich Chemical Co., Milwaukee, Wis.). The mixture was extracted with 5 mL of a 1:1 mixture of petroleum ether:anhydrous diethyl ether.
The dried residue was resuspended in mobile phase consisting of a 47:47:6 (v:v:v) mixture of HPLC-grade acetonitrile: methanol: chloroform (Fisher Scientific, Fair Lawn, N.J.). Lutein, zeaxanthin and α-tocopherol were quantitated by comparing the area under the curve whereas retinol was quantitated using peak height. The identity of the eluted compounds was confirmed by comparing their absorption spectrum with that of pure standards. Because baseline separation of lutein and zeaxanthin was not accomplished, plasma concentrations were reported as lutein+zeaxanthin.

[3] = across all treatments and all periods

SMILES: CC1=C[C@H](O)CC(C)(C)[C@H]1/C=C/C(C)=C/C=C/C(C)=C/C=C/C=C(C)/C=C/C=C(C)/C=C/C1=C(C)C[C@@H](O)CC1(C)C [lutein]
- Effect on plasma retinol and α-tocopherol [1]: did not influence
- Plasma retinol average [1]: 0.56 ± 0.03 µmol/L
- Plasma α-tocopherol average [1]: 14.9 ± 0.9 µmol/L
- Effect on plasma retinol and α-tocopherol [2]: did not influence
- Plasma retinol average [2, 3]: 3.63 ± 0.14 µmol/L
- Plasma α-tocopherol average [2, 3]: 37 ± 2 µmol/L
